# Measurements reported in PMC5700102, “Primer synthesis by a eukaryotic-like archaeal primase is independent of its Fe-S cluster” (Nature Communications, 2017).
# No constants are given. Whether binding was seen depends on the method and setting. Binding calls can cover weak binding; strength is not graded here.
# How the values were obtained:
# [1] = biological target: T1, PriS E34C (S. solfataricus) (UniProt Q97Z83); assay: cross-linking; BMOE cross-linking of 5 μM purified cysteine double mutant primase (PriSLX or Chimera), 25 °C, 1 h, 25 mM Hepes pH 7.2, 150 mM NaCl, 5 mM MnCl2; SDS-PAGE, Coomassie; also with RNA/DNA or 5'-pppRNA/DNA (less cross-linked product with 5'-pppRNA/DNA); both purified
# T1 sequence: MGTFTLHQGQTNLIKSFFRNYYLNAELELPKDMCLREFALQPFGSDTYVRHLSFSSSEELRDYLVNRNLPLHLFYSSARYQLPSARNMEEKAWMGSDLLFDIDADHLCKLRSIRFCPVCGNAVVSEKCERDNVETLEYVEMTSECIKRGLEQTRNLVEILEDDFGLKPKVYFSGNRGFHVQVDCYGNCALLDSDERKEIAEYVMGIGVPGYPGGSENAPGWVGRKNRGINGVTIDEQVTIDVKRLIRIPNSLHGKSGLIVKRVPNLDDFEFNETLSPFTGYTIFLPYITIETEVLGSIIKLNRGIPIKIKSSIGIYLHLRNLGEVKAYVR
# [2] = biological target: T2, PriL, regulatory subunit of the heterotrimeric primase PriSLX from S. solfataricus (S. solfataricus) (UniProt Q9UWW1); assay: crystal structure; PriSLX heterotrimer, 2.9 Å; crystallised with 1 mM MnCl2, 2 mM AMPCPP and an RNA-DNA hybrid (not seen in the map); two heterotrimers in the asymmetric unit; both purified
# T2 sequence: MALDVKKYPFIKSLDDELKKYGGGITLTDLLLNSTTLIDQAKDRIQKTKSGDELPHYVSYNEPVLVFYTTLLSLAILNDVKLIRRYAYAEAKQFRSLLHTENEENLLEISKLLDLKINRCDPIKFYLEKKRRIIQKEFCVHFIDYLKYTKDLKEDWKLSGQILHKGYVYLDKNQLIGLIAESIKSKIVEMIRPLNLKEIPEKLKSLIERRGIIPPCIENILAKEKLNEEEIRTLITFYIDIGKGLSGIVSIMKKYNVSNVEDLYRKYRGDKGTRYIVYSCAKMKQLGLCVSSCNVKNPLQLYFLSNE
binding [1],binding [2],Substance
binds,–,PriX K110C (S. solfataricus)
–,binds,"PriX, third subunit of the heterotrimeric primase PriSLX from S. solfataricus"
